Experimental data as given in paper PMC9967311.
These are yes or no findings as the source states them, for the method shown. In cells and extracts the contact can be indirect. Here binding means that the protein was enriched with, or labelled near, the bait; the list need not be complete.

Sequences of proteins named here, by UniProt entry; tags and fusion partners are left off.
UniProt P49407: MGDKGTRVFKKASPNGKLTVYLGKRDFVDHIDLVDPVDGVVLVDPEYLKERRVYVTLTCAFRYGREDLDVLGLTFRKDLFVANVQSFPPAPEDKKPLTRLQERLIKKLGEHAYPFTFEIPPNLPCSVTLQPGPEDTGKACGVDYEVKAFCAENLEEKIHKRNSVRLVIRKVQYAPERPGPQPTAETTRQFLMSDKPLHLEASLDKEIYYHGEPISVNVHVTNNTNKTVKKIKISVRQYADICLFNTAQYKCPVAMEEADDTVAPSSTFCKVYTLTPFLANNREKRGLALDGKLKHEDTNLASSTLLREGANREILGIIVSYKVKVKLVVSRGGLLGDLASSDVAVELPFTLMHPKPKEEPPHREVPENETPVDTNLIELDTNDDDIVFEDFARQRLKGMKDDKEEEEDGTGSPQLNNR
UniProt Q92783: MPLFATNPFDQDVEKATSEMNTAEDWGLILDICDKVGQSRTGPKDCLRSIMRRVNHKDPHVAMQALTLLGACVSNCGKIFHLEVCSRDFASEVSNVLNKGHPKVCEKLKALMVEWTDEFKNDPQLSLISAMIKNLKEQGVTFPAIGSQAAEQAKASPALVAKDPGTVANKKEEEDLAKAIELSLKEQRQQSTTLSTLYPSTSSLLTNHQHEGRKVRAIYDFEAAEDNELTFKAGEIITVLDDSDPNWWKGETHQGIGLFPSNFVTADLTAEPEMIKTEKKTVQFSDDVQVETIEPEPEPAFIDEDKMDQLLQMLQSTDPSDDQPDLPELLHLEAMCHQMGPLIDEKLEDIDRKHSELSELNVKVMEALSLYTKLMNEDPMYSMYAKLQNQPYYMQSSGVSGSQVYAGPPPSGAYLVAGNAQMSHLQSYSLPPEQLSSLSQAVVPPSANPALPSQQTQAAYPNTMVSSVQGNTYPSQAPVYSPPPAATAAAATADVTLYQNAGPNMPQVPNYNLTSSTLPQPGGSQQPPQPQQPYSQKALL
UniProt Q05397: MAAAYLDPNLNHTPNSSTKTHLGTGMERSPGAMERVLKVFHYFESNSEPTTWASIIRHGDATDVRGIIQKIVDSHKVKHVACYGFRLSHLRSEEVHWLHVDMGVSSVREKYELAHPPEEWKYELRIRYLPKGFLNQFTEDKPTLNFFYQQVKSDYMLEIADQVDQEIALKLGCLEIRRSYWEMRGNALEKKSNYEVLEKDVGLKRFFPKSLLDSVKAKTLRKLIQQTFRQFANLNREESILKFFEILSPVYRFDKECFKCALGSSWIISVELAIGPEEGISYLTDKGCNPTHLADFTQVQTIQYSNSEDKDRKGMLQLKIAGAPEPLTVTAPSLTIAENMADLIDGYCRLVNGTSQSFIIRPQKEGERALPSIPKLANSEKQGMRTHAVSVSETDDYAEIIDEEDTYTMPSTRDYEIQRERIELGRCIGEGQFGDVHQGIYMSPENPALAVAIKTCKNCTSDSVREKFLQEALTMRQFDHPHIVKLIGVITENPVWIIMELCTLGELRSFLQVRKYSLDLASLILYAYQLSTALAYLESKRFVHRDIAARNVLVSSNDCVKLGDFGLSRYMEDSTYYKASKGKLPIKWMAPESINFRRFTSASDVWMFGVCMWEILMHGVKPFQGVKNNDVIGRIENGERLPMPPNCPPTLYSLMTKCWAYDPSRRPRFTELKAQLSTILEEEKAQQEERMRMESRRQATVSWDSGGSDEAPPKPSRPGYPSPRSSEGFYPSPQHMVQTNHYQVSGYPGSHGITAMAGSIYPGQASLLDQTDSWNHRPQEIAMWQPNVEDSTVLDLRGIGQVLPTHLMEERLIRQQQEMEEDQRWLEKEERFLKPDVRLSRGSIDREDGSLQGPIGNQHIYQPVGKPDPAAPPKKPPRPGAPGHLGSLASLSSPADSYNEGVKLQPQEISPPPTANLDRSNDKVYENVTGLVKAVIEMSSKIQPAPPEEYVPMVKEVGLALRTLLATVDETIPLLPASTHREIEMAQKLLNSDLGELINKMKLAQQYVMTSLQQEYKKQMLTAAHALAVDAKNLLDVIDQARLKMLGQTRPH

B1: SYNPO protein (protein, UniProt Q8N3V7 1-929)
chain: MLGPHLPPPPLAPSEGRPTPCAFQIPDGSYRCLALEAEESSGEEGLQGEVGPTDLEEDEGVSRSGDDSACRVTQGTPQLPKALGIQPPSCSREEQGASQHDDRASQDWDVVKAGQMMTASPSPGPGPRVAQKPALGRSTSLTEKDLKEAKARSQQIAAQLTTPPSSNSRGVQLFNRRRQRVNEFTLESHGQRGQKPSQESLRVLPSSLPGHAPGLSLSSTSLPEPGPPRHPSPQSPDRGVPGHSMEGYSEEASLLRHLEKVASEEEEVPLVVYLKENAALLTANGLHLSQNREAQQSSPAPPPAEVHSPAADVNQNLASPSATLTTPTSNSSHNPPATDVNQNPPATVVPQSLPLSSIQQNSSEAQLPSNGTGPASKPSTLCADGQPQAPAEEVRCSTLLIDKVSTPATTTSTFSREATLIPSSRPPASDFMSSSLLIDIQPNTLVVSADQEMSGRAAATTPTKVYSEVHFTLAKPPSVVNRTARPFGIQAPGGTSQMERSPMLERRHFGEKAPAPQPPSLPDRSPRPQRHIMSRSPMVERRMMGQRSPASERRPLGNFTAPPTYTETLSTAPLASWVRSPPSYSVLYPSSDPKSSHLKGQAVPASKTGILEESMARRGSRKSMFTFVEKPKVTPNPDLLDLVQTADEKRRQRDQGEVGVEEEPFALGAEASNFQQEPAPRDRASPAAAEEVVPEWASCLKSPRIQAKPKPKPNQNLSEASGKGAELYARRQSRMEKYVIESSSHTPELARCPSPTMSLPSSWKYPTNAPGAFRVASRSPARTPPASLYHGYLPENGVLRPEPTKQPPYQLRPSLFVLSPIKEPAKVSPRAASPAKPSSLDLVPNLPKGALPPSPALPRPSRSSPGLYTSPGQDSLQPTAVSPPYGGDISPVSPSRAWSPRAKQAPRPSFSTRNAGIEAQVWKPSFCFK
B2: Serine/threonine-protein kinase TAO1 (protein, UniProt Q7L7X3 1-1001)
chain: MPSTNRAGSLKDPEIAELFFKEDPEKLFTDLREIGHGSFGAVYFARDVRTNEVVAIKKMSYSGKQSTEKWQDIIKEVKFLQRIKHPNSIEYKGCYLREHTAWLVMEYCLGSASDLLEVHKKPLQEVEIAAITHGALQGLAYLHSHTMIHRDIKAGNILLTEPGQVKLADFGSASMASPANSFVGTPYWMAPEVILAMDEGQYDGKVDVWSLGITCIELAERKPPLFNMNAMSALYHIAQNESPTLQSNEWSDYFRNFVDSCLQKIPQDRPTSEELLKHIFVLRERPETVLIDLIQRTKDAVRELDNLQYRKMKKLLFQEAHNGPAVEAQEEEEEQDHGVGRTGTVNSVGSNQSIPSMSISASSQSSSVNSLPDVSDDKSELDMMEGDHTVMSNSSVIHLKPEEENYREEGDPRTRASDPQSPPQVSRHKSHYRNREHFATIRTASLVTRQMQEHEQDSELREQMSGYKRMRRQHQKQLMTLENKLKAEMDEHRLRLDKDLETQRNNFAAEMEKLIKKHQAAMEKEAKVMSNEEKKFQQHIQAQQKKELNSFLESQKREYKLRKEQLKEELNENQSTPKKEKQEWLSKQKENIQHFQAEEEANLLRRQRQYLELECRRFKRRMLLGRHNLEQDLVREELNKRQTQKDLEHAMLLRQHESMQELEFRHLNTIQKMRCELIRLQHQTELTNQLEYNKRRERELRRKHVMEVRQQPKSLKSKELQIKKQFQDTCKIQTRQYKALRNHLLETTPKSEHKAVLKRLKEEQTRKLAILAEQYDHSINEMLSTQALRLDEAQEAECQVLKMQLQQELELLNAYQSKIKMQAEAQHDRELRELEQRVSLRRALLEQKIEEEMLALQNERTERIRSLLERQAREIEAFDSESMRLGFSNMVLSNLSPEAFSHSYPGASGWSHNPTGGPGPHWGHPMGGPPQAWGHPMQGGPQPWGHPSGPMQGVPRGSSMGVRNSPQALRRTASGGRTEQGMSRSTSVTSQISNGSHMSYT
B3: Delta(24)-sterol reductase (protein, UniProt Q15392 23-516)
chain: LEFVLIHQRWVFVCLFLLPLSLIFDIYYYVRAWVVFKLSSAPRLHEQRVRDIQKQVREWKEQGSKTFMCTGRPGWLTVSLRVGKYKKTHKNIMINLMDILEVDTKKQIVRVEPLVTMGQVTALLTSIGWTLPVLPELDDLTVGGLIMGTGIESSSHKYGLFQHICTAYELVLADGSFVRCTPSENSDLFYAVPWSCGTLGFLVAAEIRIIPAKKYVKLRFEPVRGLEAICAKFTHESQRQENHFVEGLLYSLDEAVIMTGVMTDEAEPSKLNSIGNYYKPWFFKHVENYLKTNREGLEYIPLRHYYHRHTRSIFWELQDIIPFGNNPIFRYLFGWMVPPKISLLKLTQGETLRKLYEQHHVVQDMLVPMKCLQQALHTFQNDIHVYPIWLCPFILPSQPGLVHPKGNEAELYIDIGAYGEPRVKHFEARSCMRQLEKFVRSVHGFQMLYADCYMNREEFWEMFDGSLYHKLREKLGCQDAFPEVYDKICKAARH
B4: eIF5-mimic protein 1 (protein, UniProt Q9Y6E2 1-419)
chain: MNKHQKPVLTGQRFKTRKRDEKEKFEPTVFRDTLVQGLNEAGDDLEAVAKFLDSTGSRLDYRRYADTLFDILVAGSMLAPGGTRIDDGDKTKMTNHCVFSANEDHETIRNYAQVFNKLIRRYKYLEKAFEDEMKKLLLFLKAFSETEQTKLAMLSGILLGNGTLPATILTSLFTDSLVKEGIAASFAVKLFKAWMAEKDANSVTSSLRKANLDKRLLELFPVNRQSVDHFAKYFTDAGLKELSDFLRVQQSLGTRKELQKELQERLSQECPIKEVVLYVKEEMKRNDLPETAVIGLLWTCIMNAVEWNKKEELVAEQALKHLKQYAPLLAVFSSQGQSELILLQKVQEYCYDNIHFMKAFQKIVVLFYKADVLSEEAILKWYKEAHVAKGKSVFLDQMKKFVEWLQNAEEESESEGEEN

Each molecule was assayed against β-arrestin1-APEX2 (UniProt P49407) (assay: proximity labelling; HeLa cells expressing βarr1-APEX2 or APEX2; 500 µM biotin phenol 1 h, basal or 50 nM CXCL12 for 5 or 60 min, 1 mM H2O2 1 min; streptavidin agarose purification of lysates; immunoblotting).

binding, binds:
STAM1 (from UniProt Q92783 1-540)
FAK (from UniProt Q05397 1-1052)

Each molecule was assayed against β-arrestin1-APEX2 (UniProt P49407) (assay: proximity labelling; HeLa cells expressing βarr1-APEX2 or APEX2, labelled as for immunoblotting; frozen aliquots, streptavidin agarose purification, trypsin digestion, TMT labelling, quantitative mass spectrometry; hits: abundance ratio CXCL12 (5 or 60 min) over basal of 1.2 or more and not enriched with APEX2 alone).

binding, binds:
B1
B2
B3
B4
